The record followed here is PMC11357106.

Sequences of proteins named here, by UniProt entry; tags and fusion partners are left off. A change or cut given only in a name is not applied to a line headed by its entry.
UniProt Q9LF51: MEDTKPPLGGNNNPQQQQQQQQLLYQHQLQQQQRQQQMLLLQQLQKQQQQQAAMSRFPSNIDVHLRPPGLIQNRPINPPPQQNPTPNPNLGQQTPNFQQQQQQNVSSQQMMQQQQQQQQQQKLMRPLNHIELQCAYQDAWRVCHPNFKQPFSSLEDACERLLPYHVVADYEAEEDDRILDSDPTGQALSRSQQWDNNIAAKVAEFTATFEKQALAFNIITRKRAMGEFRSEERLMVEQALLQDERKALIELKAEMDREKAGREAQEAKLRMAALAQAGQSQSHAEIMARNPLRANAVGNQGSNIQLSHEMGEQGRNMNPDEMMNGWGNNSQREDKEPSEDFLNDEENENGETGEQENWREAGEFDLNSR
UniProt Q9FMT4: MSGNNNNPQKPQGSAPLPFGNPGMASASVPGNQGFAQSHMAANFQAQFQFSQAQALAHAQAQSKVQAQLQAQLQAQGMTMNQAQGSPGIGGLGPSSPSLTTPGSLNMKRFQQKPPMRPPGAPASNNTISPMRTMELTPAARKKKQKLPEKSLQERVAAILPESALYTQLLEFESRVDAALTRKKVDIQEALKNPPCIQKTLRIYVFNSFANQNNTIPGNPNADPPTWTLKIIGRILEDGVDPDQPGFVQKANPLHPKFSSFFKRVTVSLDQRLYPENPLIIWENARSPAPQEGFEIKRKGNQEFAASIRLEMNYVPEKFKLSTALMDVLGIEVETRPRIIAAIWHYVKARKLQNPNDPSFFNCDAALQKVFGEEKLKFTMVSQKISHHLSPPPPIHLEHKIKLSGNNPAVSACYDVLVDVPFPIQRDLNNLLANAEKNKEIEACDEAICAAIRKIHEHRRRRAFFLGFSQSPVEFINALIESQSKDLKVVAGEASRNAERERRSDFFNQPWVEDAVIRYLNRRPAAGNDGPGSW
UniProt Q9SD86: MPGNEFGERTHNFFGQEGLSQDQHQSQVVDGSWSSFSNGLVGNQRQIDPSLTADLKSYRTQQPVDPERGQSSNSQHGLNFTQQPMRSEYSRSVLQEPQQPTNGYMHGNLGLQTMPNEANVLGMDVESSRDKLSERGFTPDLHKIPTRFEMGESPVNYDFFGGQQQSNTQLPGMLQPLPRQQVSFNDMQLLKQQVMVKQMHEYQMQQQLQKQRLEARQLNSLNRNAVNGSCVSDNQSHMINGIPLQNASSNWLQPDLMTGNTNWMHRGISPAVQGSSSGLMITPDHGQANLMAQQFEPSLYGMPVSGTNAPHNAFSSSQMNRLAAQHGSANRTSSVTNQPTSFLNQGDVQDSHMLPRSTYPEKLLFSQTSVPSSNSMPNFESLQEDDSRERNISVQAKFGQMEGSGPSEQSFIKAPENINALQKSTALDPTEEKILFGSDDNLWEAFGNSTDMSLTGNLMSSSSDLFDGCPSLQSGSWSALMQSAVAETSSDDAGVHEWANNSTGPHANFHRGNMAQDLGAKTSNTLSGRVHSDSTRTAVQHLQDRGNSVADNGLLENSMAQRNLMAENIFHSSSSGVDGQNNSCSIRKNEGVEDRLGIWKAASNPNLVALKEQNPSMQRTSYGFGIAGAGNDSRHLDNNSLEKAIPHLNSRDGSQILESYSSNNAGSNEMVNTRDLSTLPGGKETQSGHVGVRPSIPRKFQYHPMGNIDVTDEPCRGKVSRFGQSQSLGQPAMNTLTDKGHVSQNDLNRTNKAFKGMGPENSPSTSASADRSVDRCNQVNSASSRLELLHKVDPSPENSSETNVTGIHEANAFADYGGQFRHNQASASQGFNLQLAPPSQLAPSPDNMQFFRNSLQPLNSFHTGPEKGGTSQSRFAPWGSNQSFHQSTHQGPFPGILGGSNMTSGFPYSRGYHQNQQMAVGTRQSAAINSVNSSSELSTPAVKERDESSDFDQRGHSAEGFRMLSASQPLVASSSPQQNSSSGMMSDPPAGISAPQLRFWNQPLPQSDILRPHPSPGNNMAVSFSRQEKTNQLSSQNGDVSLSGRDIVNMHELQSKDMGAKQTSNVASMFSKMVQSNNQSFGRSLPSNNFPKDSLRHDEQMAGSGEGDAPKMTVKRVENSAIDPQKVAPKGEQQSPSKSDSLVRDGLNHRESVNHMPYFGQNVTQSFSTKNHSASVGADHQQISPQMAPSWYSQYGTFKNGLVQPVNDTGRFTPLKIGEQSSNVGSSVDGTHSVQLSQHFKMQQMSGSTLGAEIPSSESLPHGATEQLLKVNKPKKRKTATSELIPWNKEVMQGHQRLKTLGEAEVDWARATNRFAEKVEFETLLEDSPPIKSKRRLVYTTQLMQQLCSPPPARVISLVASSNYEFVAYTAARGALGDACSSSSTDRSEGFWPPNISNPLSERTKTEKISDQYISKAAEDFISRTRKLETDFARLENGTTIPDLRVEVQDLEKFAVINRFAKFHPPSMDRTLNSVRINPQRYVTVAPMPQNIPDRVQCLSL
UniProt F4IPJ1: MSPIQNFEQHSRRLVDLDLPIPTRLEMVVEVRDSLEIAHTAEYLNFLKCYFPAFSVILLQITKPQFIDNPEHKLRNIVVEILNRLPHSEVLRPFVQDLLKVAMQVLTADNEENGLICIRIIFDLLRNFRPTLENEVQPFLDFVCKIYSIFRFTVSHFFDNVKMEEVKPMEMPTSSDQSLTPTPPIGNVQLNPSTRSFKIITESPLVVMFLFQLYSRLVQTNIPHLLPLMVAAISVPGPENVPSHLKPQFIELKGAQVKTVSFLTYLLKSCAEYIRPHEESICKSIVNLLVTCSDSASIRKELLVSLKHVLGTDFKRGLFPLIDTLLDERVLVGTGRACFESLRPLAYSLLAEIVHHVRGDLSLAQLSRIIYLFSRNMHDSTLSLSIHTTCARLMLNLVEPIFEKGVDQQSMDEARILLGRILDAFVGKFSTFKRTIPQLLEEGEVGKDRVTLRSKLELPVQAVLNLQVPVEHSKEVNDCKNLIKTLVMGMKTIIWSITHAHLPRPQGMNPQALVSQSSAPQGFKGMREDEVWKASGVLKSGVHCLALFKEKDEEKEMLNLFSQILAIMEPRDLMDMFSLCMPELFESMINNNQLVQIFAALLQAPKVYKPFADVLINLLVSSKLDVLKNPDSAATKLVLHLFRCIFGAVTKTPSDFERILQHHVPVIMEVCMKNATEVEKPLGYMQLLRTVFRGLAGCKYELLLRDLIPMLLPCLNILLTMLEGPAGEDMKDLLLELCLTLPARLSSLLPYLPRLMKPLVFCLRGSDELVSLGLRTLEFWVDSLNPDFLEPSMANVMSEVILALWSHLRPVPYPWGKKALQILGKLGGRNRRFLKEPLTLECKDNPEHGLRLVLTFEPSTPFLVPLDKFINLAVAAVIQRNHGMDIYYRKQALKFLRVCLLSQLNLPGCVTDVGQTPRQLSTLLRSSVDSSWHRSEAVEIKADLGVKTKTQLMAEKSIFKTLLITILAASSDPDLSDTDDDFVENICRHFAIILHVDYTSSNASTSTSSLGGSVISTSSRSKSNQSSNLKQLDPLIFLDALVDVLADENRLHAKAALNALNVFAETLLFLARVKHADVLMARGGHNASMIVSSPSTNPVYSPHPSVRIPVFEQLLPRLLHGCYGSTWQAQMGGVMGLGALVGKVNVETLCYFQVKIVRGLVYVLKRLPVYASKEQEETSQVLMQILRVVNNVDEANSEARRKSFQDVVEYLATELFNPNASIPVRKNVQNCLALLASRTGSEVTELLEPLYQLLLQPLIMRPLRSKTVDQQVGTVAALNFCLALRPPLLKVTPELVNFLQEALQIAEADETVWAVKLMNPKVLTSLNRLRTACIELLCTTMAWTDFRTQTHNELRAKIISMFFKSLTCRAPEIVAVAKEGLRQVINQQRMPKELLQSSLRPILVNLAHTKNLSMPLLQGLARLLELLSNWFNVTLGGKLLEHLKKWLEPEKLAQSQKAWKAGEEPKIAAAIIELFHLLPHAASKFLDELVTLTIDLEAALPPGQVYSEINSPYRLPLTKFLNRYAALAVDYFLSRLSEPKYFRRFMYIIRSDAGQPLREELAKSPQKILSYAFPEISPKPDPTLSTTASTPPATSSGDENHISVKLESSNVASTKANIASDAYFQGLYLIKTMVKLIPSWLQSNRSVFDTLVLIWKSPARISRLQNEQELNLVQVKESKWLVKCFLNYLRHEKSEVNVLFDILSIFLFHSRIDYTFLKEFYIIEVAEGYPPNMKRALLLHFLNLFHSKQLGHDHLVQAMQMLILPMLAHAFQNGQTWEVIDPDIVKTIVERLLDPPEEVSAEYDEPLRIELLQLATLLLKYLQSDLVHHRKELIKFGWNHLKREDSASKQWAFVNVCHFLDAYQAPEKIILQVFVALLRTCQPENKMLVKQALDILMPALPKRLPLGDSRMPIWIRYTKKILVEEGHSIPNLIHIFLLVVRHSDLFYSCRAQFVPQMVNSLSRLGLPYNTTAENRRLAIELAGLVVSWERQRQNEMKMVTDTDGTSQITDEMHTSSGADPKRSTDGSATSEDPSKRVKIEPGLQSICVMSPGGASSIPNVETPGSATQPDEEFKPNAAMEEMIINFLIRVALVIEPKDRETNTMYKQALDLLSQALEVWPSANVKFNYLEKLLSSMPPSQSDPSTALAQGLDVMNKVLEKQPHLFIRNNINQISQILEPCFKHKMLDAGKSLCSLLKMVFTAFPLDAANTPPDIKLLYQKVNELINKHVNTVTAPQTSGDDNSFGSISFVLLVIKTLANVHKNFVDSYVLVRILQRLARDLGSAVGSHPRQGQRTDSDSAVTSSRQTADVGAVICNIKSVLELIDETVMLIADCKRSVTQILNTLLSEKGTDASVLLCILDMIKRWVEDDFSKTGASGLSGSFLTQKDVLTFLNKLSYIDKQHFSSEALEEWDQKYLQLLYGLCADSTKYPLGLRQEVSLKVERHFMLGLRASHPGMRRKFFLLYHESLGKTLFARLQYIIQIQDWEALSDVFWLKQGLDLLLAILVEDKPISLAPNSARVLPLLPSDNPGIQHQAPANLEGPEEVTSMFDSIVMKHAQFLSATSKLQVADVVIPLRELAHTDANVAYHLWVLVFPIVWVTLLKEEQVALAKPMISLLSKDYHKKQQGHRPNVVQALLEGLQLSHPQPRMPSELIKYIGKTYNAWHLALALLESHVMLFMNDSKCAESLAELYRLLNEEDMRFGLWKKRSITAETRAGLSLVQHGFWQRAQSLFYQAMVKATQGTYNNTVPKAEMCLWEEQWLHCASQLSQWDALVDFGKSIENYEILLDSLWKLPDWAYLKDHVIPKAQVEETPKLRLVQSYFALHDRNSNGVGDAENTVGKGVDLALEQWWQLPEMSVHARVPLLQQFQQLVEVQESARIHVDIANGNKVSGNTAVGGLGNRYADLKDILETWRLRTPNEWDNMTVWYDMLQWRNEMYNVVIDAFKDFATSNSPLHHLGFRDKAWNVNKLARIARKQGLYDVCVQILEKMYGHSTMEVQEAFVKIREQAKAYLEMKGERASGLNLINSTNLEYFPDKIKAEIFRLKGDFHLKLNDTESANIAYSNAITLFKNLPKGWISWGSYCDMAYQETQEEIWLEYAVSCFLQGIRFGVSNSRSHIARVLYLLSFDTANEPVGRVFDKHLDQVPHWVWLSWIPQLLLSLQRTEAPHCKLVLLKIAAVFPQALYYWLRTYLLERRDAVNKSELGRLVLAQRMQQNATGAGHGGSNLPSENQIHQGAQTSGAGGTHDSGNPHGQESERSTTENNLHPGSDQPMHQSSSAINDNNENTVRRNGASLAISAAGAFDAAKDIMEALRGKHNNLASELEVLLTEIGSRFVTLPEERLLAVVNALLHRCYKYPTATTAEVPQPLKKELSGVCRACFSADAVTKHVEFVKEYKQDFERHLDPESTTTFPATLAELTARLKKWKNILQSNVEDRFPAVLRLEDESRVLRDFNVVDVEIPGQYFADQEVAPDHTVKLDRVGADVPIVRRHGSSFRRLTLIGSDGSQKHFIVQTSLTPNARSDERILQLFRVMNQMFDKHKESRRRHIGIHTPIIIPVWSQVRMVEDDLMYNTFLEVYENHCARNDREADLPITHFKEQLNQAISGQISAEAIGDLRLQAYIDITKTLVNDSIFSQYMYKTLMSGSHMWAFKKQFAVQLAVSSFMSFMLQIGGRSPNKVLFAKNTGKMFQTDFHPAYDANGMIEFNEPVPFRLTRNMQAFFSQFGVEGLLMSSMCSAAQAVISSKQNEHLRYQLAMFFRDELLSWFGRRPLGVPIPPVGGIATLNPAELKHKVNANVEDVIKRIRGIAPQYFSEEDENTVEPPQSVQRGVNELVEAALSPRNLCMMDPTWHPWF

No constants are given. Whether binding was seen depends on the method and setting. Binding seen in cells or lysates may run through a third protein. These calls come from enrichment with a bait or labelling near it, and not all partners need be listed. Sequences can lack the tags named with a protein.

T1: SCREAM (SCRM) fused to TurboID and Venus (SCRMp::SCRM-TbID-Venus) (Arabidopsis thaliana) (UniProt Q9LSE2)
T1 sequence: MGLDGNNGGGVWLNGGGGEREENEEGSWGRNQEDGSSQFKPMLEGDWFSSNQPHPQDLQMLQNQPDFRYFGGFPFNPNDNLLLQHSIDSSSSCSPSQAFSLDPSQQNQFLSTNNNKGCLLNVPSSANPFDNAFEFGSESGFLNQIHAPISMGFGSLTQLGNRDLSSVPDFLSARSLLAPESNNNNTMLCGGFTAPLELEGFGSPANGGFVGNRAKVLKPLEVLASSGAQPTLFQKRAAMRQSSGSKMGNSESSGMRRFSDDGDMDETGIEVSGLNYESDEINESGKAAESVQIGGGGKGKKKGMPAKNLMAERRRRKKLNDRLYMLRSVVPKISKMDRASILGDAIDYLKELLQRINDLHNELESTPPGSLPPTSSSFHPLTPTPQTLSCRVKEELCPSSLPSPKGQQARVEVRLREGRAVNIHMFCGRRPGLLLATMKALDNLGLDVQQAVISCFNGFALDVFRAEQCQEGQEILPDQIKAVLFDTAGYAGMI

B1: FAMA (protein, UniProt Q56YJ8 1-414)
chain: MDKDYSAPNFLGESSGGNDDNSSGMIDYMFNRNLQQQQKQSMPQQQQHQLSPSGFGATPFDKMNFSDVMQFADFGSKLALNQTRNQDDQETGIDPVYFLKFPVLNDKIEDHNQTQHLMPSHQTSQEGGECGGNIGNVFLEEKEDQDDDNDNNSVQLRFIGGEEEDRENKNVTKKEVKSKRKRARTSKTSEEVESQRMTHIAVERNRRKQMNEHLRVLRSLMPGSYVQRGDQASIIGGAIEFVRELEQLLQCLESQKRRRILGETGRDMTTTTTSSSSPITTVANQAQPLIITGNVTELEGGGGLREETAENKSCLADVEVKLLGFDAMIKILSRRRPGQLIKTIAALEDLHLSILHTNITTMEQTVLYSFNVKITSETRFTAEDIASSIQQIFSFIHANTNISGSSNLGNIVFT
B2: SPT20/PHL (SAGA complex) (protein, UniProt F4IDB2 1-1325)
chain: MGVSFKISKVGRKFRPKISTELATPDSPKAIVLSGKPKATDDSNIGDVSGFSKPSLPDISPDHEVSFILSLYPNGYSIGKTSEAMQQISFRDVPKVLHPYDRAAEGLLSAIEAGRLPGDILEDIPCKFVDGVVICEVHDYRKHTSSQVSPVINKLRLKMSLENVVKDIPSMSDNSWTYGDLMEVESRILKALQPELCLDPLPRLDRLSKNPLTAKLDLSLSTLRRKRLRQMAEVTVMSQNKIQGKKVCIDRLPESSERGNLPGHLIMQQTNNNQAIQNLGTNMLAGLRSQPLQDAPNSSLALVPPQQQRYMGIGSTRNTQDQGSNSVSVSGASPGGLDAMLPYGSDSMNPGTSFHRKRESQEGQMSSMPGLNKRTRVSHMGPDGVPQQQLGQRMDGLHGSDTNWKNTLLQHQDMLGRSIQYPNTSIQRFSPHQMEGVMNQEGGPMQFPASQQGGMKYTSKEEPFETGKIDGGTRNNIPGVGSDANDLDPRIQSRMPHNAFIRSNFPQTSWNVNPGQQIEKEPKKEEQFSRRISAQSPRLSAGGPPQSPLSSKSGEFSGGSMGTHYGAVAAAQKDKAVTSIPAIGATQSVGSSANEAMQQRQHQAQMAAKRRTNSLPKTQVISTVGSPVSVNTISVPVNARSPSVGPQTLGDHAILDRFSKIERVAARYQLNCKKHKVDEYSRRPRVYAKQPLTVCLSNLSNEEVFKDEDEALSKSIFGGSMNTYKTRVIHFGQMERVMQGSVPSFIPRNRTRLVMSEKAVDGTVAWYQGDVDEGDVFQAEDFLLALPNTHIADLLATQFKSLMAREGYMIEEHIMAKPNRGDTGPISSHPNSAGGYPRGYSANDMQQYGDAVAGQASGEASKHGNTGNTPNNSTQNILANARMVPPTNSQALQMSQGLLSGVSMPMQPQQLDPQQSALLSSHSQQKNQQSMFTQQQHPQMQRPSMILPTNPLSAINSMSQSSGMQPGGQMANKYSPLQLQMLQQQQQAAVQKKIMMGLGSGVGMGMGMGMGMGMGSMGNSIAGLGALGNQLNMAGRGMGGTGISSSMSVPGIGNMGQNPMNLNPASNLNAISQQLRSGALTPQQNALFTQIRMGMANRGGVMGAPQTGISGVSGTRQMHPSSAGLSMLDQNRANLQRAAAMGNMGPPKLMPGMMNLYMNQQQQQQQLQQQPQQQQLQHQQQLQQPMSQPSQQLAQSPQQQQQLQQHEQPQQAQQQQQATASPLQSVLSPPQVGSPSAGITQQQLQQSSPQQMSQRTPMSPQQVNQRTPMSPQISSGAMHPMSTSNLEGCPASPQLSSQTMGSVGSITNSPMELQGPKNNSAGNNS
B3: LUH (protein, UniProt O48847 1-787)
chain: MAQSNWEADKMLDVYIYDYLVKKKLHNTAKSFMTEGKVSPDPVAIDAPGGFLFEWWSVFWDIFIARTNEKHSEAAAAYIEAQQGKAKEQQMQIQQLQMMRQAQMQRRDPNHPSLGGPMNAIGSEGMIGQSNASALAAKMYEERMKQPNPMNSETSQPHLDARMALLKSATNHHGQIVQGNHQGGVSAALQQIQSRTQQPTEIKTEVNLGTSPRQLPVDPSTVYGQGILQSKPGMGSAGLNPGVSGLPLKGWPLTGIEQMRPGLGGPQVQKSFLQNQSQFQLSPQQQQHQMLAQVQAQGNMTNSPMYGGDMDPRRFTGLPRGNLNPKDGQQNANDGSIGSPMQSSSSKHISMPPVQQSSSQQQDHLLSQQSQQNNRKRKGPSSSGPANSTGTGNTVGPSNSQPSTPSTHTPVDGVAIAGNMHHVNSMPKGPMMYGSDGIGGLASSANQLLQDDMDQFGDVGALEDNVESFLSQDDGDGGSLFGTLKRNSSVHTETSKPFSFNEVSCIRKSASKVICCSFSYDGKLLASAGHDKKVFIWNMETLQVESTPEEHAHIITDVRFRPNSTQLATSSFDKTIKIWDASDPGYFLRTISGHAAPVMSIDFHPKKTELLCSCDSNNDIRFWDINASCVRAVKGASTQVRFQPRTGQFLAAASENTVSIFDIENNNKRVNIFKGHSSNVHSVCWSPNGELVASVSEDAVKLWSLSSGDCIHELSNSGNKFHSVVFHPSYPDLLVIGGYQAIELWNTMENKCMTVAGHECVISALAQSPSTGVVASASHDKSVKIWK
B4: SWI3C, regulatory subunit of the SWI/SNF complex (protein, UniProt Q9XI07 1-807)
chain: MPASEDRRGKWKRKKRGGLSAARKPKQEEEDMEEEDEENNNNNNEEMDDVENADELQQNGGATPDPGLGIGEVVEDSGSRISDFPAVVKRVVIRPHASVMAVVAAERAGLIGETRGQGSLPALENISFGQLQALSTVPADSLDLERSDGSSSAYVISPPPIMDGEGVVKRFGDLVHVLPMHSDWFAPNTVDRLERQVVPQFFSGKSPNHTPESYMEFRNAIVSKYVENPEKTLTISDCQGLVDGVDIEDFARVFRFLDHWGIINYCATAQSHPGPLRDVSDVREDTNGEVNVPSAALTSIDSLIKFDKPNCRHKGGEVYSSLPSLDGDSPDLDIRIREHLCDSHCNHCSRPLPTVYFQSQKKGDILLCCDCFHHGRFVVGHSCLDFVRVDPMKFYGDQDGDNWTDQETLLLLEAVELYNENWVQIADHVGSKSKAQCILHFLRLPVEDGLLDNVEVSGVTNTENPTNGYDHKGTDSNGDLPGYSEQGSDTEIKLPFVKSPNPVMALVAFLASAVGPRVAASCAHESLSVLSEDDRMKSEGMQGKEASLLDGENQQQDGAHKTSSQNGAEAQTPLPQDKVMAAFRAGLSAAATKAKLFADHEEREIQRLSANIVNHQLKRMELKLKQFAEIETLLMKECEQVEKTRQRFSAERARMLSARFGSPGGISPQTNNLQGMSLSTGGNNINSLMHQQHQQQQASATSQPSIIPGFSNNPQVQAQMHFMARQQQQQQQQQQQQQQAFSFGPRLPLNAIQTNAGSTASPNVMFGNNQLNNPAAAGAASINQPSFSHPMVRSSTGSGSGSGLGLN
B5: SWI3D, regulatory subunit of the SWI/SNF complex (protein, UniProt Q8VY05 1-985)
chain: MEEKRRDSAGTLAFAGSSGDSPASEPMPAPRRRGGGLKRKANALGGSNFFSSAPSKRMLTREKAMLASFSPVHNGPLTRARQAPSIMPSAADGVKSEVLNVAVGADGEKPKEEEERNKAIREWEALEAKIEADFEAIRSRDSNVHVVPNHCGWFSWEKIHPLEERSLPSFFNGKLEGRTSEVYREIRNWIMGKFHSNPNIQIELKDLTELEVGDSEAKQEVMEFLDYWGLINFHPFPPTDTGSTASDHDDLGDKESLLNSLYRFQVDEACPPLVHKPRFTAQATPSGLFPDPMAADELLKQEGPAVEYHCNSCSADCSRKRYHCPKQADFDLCTECFNSGKFSSDMSSSDFILMEPAEAPGVGSGKWTDQETLLLLEALEIFKENWNEIAEHVATKTKAQCMLHFLQMPIEDAFLDQIDYKDPISKDTTDLAVSKDDNSVLKDAPEEAENKKRVDEDETMKEVPEPEDGNEEKVSQESSKPGDASEETNEMEAEQKTPKLETAIEERCKDEADENIALKALTEAFEDVGHSSTPEASFSFADLGNPVMGLAAFLVRLAGSDVATASARASIKSLHSNSGMLLATRHCYILEDPPDNKKDPTKSKSCSADAEGNDDNSHKDDQPEEKSKKAEEVSLNSDDREMPDTDTGKETQDSVSEEKQPGSRTENSTTKLDAVQEKRSSKPVTTDNSEKPVDIICPSQDKCSGKELQEPLKDGNKLSSENKDASQSTVSQSAADASQPEASRDVEMKDTLQSEKDPEDVVKTVGEKVQLAKEEGANDVLSTPDKSVSQQPIGSASAPENGTAGGNPNIEGKKEKDICEGTKDKYNIEKLKRAAISAISAAAVKAKNLAKQEEDQIRQLSGSLIEKQLHKLEAKLSIFNEAESLTMRVREQLERSRQRLYHERAQIIAARLGVPPSMSSKASLPTNRIAANFANVAQRPPMGMAFPRPPMPRPPGFPVPGSFVAATTMTGSSDPSPGSDNVSSV
B6: … (SPCH) (protein, UniProt Q700C7 1-364)
chain: MQEIIPDFLEECEFVDTSLAGDDLFAILESLEGAGEISPTAASTPKDGTTSSKELVKDQDYENSSPKRKKQRLETRKEEDEEEEDGDGEAEEDNKQDGQQKMSHVTVERNRRKQMNEHLTVLRSLMPCFYVKRGDQASIIGGVVEYISELQQVLQSLEAKKQRKTYAEVLSPRVVPSPRPSPPVLSPRKPPLSPRINHHQIHHHLLLPPISPRTPQPTSPYRAIPPQLPLIPQPPLRSYSSLASCSSLGDPPPYSPASSSSSPSVSSNHESSVINELVANSKSALADVEVKFSGANVLLKTVSHKIPGQVMKIIAALEDLALEILQVNINTVDETMLNSFTIKIGIECQLSAEELAQQIQQTFC

For the assay, the target named is T1, SCREAM (SCRM) fused to TurboID and Venus (SCRMp::SCRM-TbID-Venus) (Arabidopsis thaliana). Description: proximity labelling; TurboID on SCRM (SCRMp::SCRM-TbID-Venus in homozygous scrm/ice1-2), 5-day-old seedlings, 50 uM biotin, streptavidin beads, LC-MS with label-free quantification; enrichment against WT, SPCHp- and FAMAp-driven nuclear TbID and untreated SCRM-TbID samples.
For the molecule “BRAHMA (BRM), core ATPase of the SWI/SNF complex (from UniProt Q6EVK6 1-2193)”, the binding entry is reported as “binds”.

With “BRD1, core bromodomain-containing protein of the SWI/SNF complex (from UniProt Q9LM88)”, the binding entry is reported as “binds”.

On to BRIP2 (from UniProt Q9LF51), for which the binding entry is “binds”.

Regarding SWP73B (from UniProt Q9FMT4), the binding result is recorded as “binds”.

For the molecule SYS1, the binding result is on record as “binds”.

On to SYS3 (from UniProt Q9SD86), for which the binding result is given as “binds”.

“TRA1a (SAGA complex) (from UniProt F4IPJ1)”: the binding entry is reported as “binds”.

Turning to B1, the binding entry is recorded as “binds”.

For the molecule B2, the binding entry is “binds”.

Take B3: the binding entry is recorded as “binds”.

For the molecule B4, the binding entry is given as “binds”.

With B5, the binding result is “binds”.

For B6, the binding entry is “binds”.
